Most values lie at the floor of the assay. Slopes are relative: functional sequences can read slightly below zero. Where only a bound is given, the exact number is not on record here.

The series has as its system Saccharomyces cerevisiae PS128 hsf1 delta, HSF1(1-493) fusion. As to the kind of experiment: growth estimate (transactivation domain function in HSF1 fusion, heat-shock survival) (a.u. (slope of normalised read count over time)); higher = stronger growth at 37°C, i.e. more transactivation activity. The conditions noted are these: library: random library. As for the experimental part:
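Random 60-nt DNA library encoding peptides of up to 20 aa, fused to the C-terminus of yeast HSF1 residues 1-493 (C-terminal TAD deleted) and expressed from the native HSF1 promoter on a CEN plasmid in hsf1-deleted S. cerevisiae PS128. Cells were selected at 37°C on -trp 5-FOA plates for 0, 2, 4, 6 and 8 days and amplicons were sequenced. Growth estimate is the slope of a robust linear fit of total-sum-normalised read counts (normalised to the first time point) over time, using at least 2 replicates. Sequences are classed functional (TAD activity) above a threshold of -0.13, set from stop-codon control sequences.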
As to KIIGQDLVIEVR, the growth estimate is < -0.25.
Then TVMAATPVIC, with < -0.25.
For the substance AICSHLWEQLTKPRVSGEPP, the growth estimate is < -0.25.
Turning to WNQEAFRGE, the growth estimate was 0.777.
Then VHRISANYESETSRVDGSTR, with < -0.25; and SWVYPEPLMWKKLLFAGTFN, with < -0.25.
Consider VAFRPTHTDRSVCKHRG, for which the growth estimate is < -0.25.
As to TRDFVPSECYVVNRSLLSFM, the growth estimate is < -0.25.
Regarding TLPFFYRWNYTSHQPGDPPV, the growth estimate was < -0.25.
For NGHGWWSLDHWFNLYWRMTC, the growth estimate was < -0.25.
Regarding IRFYRLSWFQVLVACLKFTA, the growth estimate is < -0.25.
RSSQRLKSR: the growth estimate is < -0.25.
Then DSSRPTHGHVIVGNFSVKLP, with < -0.25; and GRCDR, with < -0.25; and LLYAQATWRAASIVSYVPWT, with < -0.25.
Then LSFRESTSEV, with < -0.25; and AFLKRK, with < -0.25; and LARGET, with 0.0789.
Take PVGIIFRNITQLSVYSQGMT: the growth estimate is < -0.25.
Then VSRAEGALMRILQDSN, with < -0.25; and RIAMCRVFTQGATVFMTSGK, with < -0.25.
EPGLVHRGMAQL: the growth estimate was < -0.25.
Take VRPKRIPGASLMSGTETSYR: the growth estimate was < -0.25.
For the substance KPA, the growth estimate is < -0.25.
Under AWVPVLSDYRHAVRTWGQCT stands < -0.25; under RDAKAHRRV, < -0.25.
Under DGIVVMIVAKGRSGGDWVM stands < -0.25; under STKFDRLNEGIATRNVHDHP, < -0.25; under KDPISVVGRGRNDSDIGDMG, < -0.25.
Under CMDWHSID stands < -0.25; under GWARTMHPHSC, < -0.25.
With LCYPGSCGAGRTPCSAPISY, the growth estimate is < -0.25.
Then LEQRLVPSGRYYATMGSIDG, with < -0.25.
Then VCRYLSFWGRSIPTREL, with < -0.25; and DRVRLACRLLRLYTRRL, with < -0.25.
Under SSFYINHLEVLGLRKFTVIA stands < -0.25; under EGSITHTVQLLRVQNWYRKR, < -0.25.
On to SRVLVPGQ, for which the growth estimate is < -0.25.
Under GAAVV stands < -0.25.
Regarding TMTLVEFNSAQNFFIPILTV, the growth estimate was < -0.25.
Under GWK stands < -0.25.
As for GWGATGPLCLV, the growth estimate was < -0.25.
On to QKRMTE, for which the growth estimate is -0.227.
Consider IQRLLSRRSHDPMRSSEASF, for which the growth estimate was 0.161.
Under VPR stands < -0.25; under VFMMSMGEQALSENGEAIWV, < -0.25; under ALSNLIVFRRSGVSASINY, < -0.25.
Consider CVNLNAARCAEFELVRGFDG, for which the growth estimate was < -0.25.
Then TISYLRR, with < -0.25; and LRVPPGV, with < -0.25; and GPGMALCRSRLSSARYMSQY, with < -0.25.
In the case of KPSRHSSYGTLESAPAPGER, the growth estimate is < -0.25.
In the case of ADRRRLVILLQNLAWNACRH, the growth estimate was < -0.25.
Under SIVVCEVLSSRGSDDRRPIV stands < -0.25.
Turning to RLQAKRHIAYILQQVKFGRS, the growth estimate was -0.248.
Under AAGY stands -0.245.
Under GLIVRRWTVSVVTHPWLLVG stands < -0.25; under VPRGASGRLDVERTRQAPR, < -0.25.
Under CPNGNCGLCWGITEG stands < -0.25; under GNLE, < -0.25.
On to LWVHRFAKNRSGKCLVGNDL, for which the growth estimate is < -0.25.
As to HIIRGGACKD, the growth estimate was < -0.25.
Then DDRMEFSEYKAVPPRPYIAL, with < -0.25; and CVGALGL, with < -0.25; and LGRSPPGKCRDRMPRGAITE, with < -0.25.
Consider TLNLVGNFFLCSWVLVYGGL, for which the growth estimate was < -0.25.
Turning to AHP, the growth estimate is < -0.25.
On to RDGRAGA, for which the growth estimate is < -0.25.
Regarding WRCGFWMGGRGVPKEDAPSR, the growth estimate is < -0.25.
Then YRIWDRDWDSSRDLMKHDHS, with < -0.25; and REYEFRQSRRWPRL, with < -0.25.
Under GGMFNIYPFRA stands < -0.25; under ARAEHLVTAL, < -0.25; under LRFVNNSGLPEPFYSTTPVQ, < -0.25.
Under KRDRWPGAGYGRYVDQPIRL stands -0.0414; under SGRTIGH, < -0.25; under ALSYLKVSGQAYILYRMYLA, < -0.25.
Take LLVTTTRHQL: the growth estimate is < -0.25.
For EFLGTHRP, the growth estimate is < -0.25.
For the substance AGAKCHKRLNGGYTAWGTRS, the growth estimate was < -0.25.
Take HAIIKFGGCSVLVRTDKDGN: the growth estimate is < -0.25.
Regarding DDKAPRLSYQRHW, the growth estimate is < -0.25.
Then RYLQESYSVLMPPGPPACRH, with < -0.25; and SPAQVPTDPLGLVVSSVSLP, with < -0.25.
Consider DTEHRNLKV, for which the growth estimate was < -0.25.
Turning to GCRVRRVWLFVPVCCSTGRE, the growth estimate was < -0.25.
Then REVSELDRLVRKYLCFRQIV, with < -0.25.
On to GVRS, for which the growth estimate was < -0.25.
On to HWNVSRAR, for which the growth estimate was < -0.25.
Then EPSTCLVPQTPWAP, with < -0.25; and EKADGNEEGDTATINCQALD, with < -0.25.
Turning to PAVTIGGSHRSL, the growth estimate was < -0.25.
RMHPVLEF: the growth estimate was < -0.25.
Then GRLSRGCAQHSQGKWISL, with < -0.25.
Then TTVPGVDSKHSRLTLPTRMC, with < -0.25.
Consider CGGSERGSSGGEGV, for which the growth estimate was < -0.25.
As to YQWYHEPNLYLCTRAIDLSL, the growth estimate was < -0.25.
Then GDDGVIHQLVTIVSESRARE, with < -0.25; and RRRKYHNNLIPPMRFNYSSA, with -0.213; and NGGLRCMRSLAGINDNLINN, with < -0.25.
Under VSVHRVT stands < -0.25.
Turning to LSRCVRDTGKLKRDVPAILM, the growth estimate was < -0.25.
SCLLHSYLPRVMSVC: the growth estimate was < -0.25.
As for SVSFSRG, the growth estimate is < -0.25.
Under TRDVLVEPPDAISIVAQPVH stands < -0.25.
Then GVSCACRRSGYKLCQYCLSS, with < -0.25; and PSKTQECLQGDRNAPNRKVS, with < -0.25.
Under NRLAKRCLLRHSLCLLELP stands < -0.25; under FSV, < -0.25.
On to IFAVSSGQTLLMLIYVC, for which the growth estimate was < -0.25.
Then VDRLAICLASSMFVLNSLRG, with < -0.25; and EWDATISRRGSKGDSSASTC, with < -0.25; and LWNGIGQLTFGLQ, with -0.25.
Turning to LQLISCHSQRSKSCVCGQHP, the growth estimate is < -0.25.

The values are drawn from the supplement of paper PMC5949888.
